Laboratory results: patent US20190183976A1
These are yes or no findings as the source states them, for the method shown. Some binding calls cover weakened binding; strength is not graded here.

The chains behind the UniProt entries cited, without tags or fusion partners. Residues count along the entry.
UniProt P61073: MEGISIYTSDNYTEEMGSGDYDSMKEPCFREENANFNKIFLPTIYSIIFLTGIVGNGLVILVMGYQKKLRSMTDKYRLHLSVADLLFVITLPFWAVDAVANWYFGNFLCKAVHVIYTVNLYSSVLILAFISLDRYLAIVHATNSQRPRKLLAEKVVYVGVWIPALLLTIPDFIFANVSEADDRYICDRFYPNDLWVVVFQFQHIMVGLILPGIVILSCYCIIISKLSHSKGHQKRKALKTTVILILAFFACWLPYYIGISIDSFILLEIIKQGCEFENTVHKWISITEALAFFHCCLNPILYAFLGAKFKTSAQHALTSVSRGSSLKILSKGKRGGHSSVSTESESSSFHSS
UniProt P41586, residues 21-468: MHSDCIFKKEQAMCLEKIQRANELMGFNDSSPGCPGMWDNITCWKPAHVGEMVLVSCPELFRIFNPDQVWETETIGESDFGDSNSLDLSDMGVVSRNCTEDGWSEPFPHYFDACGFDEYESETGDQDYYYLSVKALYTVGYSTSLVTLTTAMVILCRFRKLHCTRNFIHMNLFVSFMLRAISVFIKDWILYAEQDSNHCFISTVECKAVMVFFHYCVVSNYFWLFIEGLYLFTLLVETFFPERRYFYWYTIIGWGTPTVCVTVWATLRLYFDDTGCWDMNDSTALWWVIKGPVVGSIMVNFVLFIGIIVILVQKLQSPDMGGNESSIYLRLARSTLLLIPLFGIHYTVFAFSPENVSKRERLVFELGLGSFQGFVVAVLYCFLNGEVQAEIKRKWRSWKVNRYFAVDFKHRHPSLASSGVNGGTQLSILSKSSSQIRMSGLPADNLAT

Legend:
[1] = target: CXCR4-VN (human) (UniProt P61073); test: BiFC, U-2 OS cells (FIG. 2D)
[2] = target: CXCR4-VN (human) (UniProt P61073); test: BiFC, U-2 OS cells
[3] = target: CXCR4-EGFP (human) (UniProt P61073); test: co-internalization of CXCR4-GFP after GPCRx agonist, U-2 OS cells

Measured: binding

ADCYAP1R1-VC (from UniProt P41586 21-468) (receptor)
binds: [1] | [2] | [3]
